Assay results published in publication PMC7793297.

By UniProt entry, the sequences of proteins in these tests, tags left out.
UniProt Q13761, whole entry: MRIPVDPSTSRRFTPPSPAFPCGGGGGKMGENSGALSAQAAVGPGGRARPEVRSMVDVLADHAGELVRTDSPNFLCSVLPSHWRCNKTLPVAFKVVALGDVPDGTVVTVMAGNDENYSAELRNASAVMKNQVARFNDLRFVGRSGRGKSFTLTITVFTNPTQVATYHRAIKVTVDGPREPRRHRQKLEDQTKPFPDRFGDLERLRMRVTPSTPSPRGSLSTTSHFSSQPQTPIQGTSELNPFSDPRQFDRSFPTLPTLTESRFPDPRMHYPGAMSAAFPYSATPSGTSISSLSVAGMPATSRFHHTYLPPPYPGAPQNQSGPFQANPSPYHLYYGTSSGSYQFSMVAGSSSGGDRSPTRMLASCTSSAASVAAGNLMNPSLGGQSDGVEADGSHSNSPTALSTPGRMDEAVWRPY
UniProt Q01196, whole entry: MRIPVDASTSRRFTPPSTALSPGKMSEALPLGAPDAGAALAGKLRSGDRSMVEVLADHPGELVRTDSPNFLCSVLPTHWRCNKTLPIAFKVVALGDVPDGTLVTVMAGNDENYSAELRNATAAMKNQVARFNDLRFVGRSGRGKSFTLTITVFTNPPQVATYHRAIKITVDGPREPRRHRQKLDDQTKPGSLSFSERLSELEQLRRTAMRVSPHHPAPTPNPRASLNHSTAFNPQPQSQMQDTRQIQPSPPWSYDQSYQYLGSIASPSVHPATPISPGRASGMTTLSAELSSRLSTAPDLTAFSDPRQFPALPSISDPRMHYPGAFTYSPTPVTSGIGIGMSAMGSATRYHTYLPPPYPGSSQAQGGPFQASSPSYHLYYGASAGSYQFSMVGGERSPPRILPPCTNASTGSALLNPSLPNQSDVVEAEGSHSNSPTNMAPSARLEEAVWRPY
UniProt Q03347, whole entry: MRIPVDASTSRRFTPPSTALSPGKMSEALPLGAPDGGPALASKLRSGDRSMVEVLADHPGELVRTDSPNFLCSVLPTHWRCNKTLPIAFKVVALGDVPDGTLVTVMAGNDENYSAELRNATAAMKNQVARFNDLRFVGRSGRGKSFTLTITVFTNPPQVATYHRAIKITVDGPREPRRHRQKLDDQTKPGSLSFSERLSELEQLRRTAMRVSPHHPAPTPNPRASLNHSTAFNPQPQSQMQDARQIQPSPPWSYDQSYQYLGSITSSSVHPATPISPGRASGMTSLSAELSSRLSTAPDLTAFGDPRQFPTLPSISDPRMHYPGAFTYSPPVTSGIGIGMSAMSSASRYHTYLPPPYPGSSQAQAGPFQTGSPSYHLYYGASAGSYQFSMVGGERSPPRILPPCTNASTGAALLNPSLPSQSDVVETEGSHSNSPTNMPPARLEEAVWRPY
UniProt Q64131, whole entry: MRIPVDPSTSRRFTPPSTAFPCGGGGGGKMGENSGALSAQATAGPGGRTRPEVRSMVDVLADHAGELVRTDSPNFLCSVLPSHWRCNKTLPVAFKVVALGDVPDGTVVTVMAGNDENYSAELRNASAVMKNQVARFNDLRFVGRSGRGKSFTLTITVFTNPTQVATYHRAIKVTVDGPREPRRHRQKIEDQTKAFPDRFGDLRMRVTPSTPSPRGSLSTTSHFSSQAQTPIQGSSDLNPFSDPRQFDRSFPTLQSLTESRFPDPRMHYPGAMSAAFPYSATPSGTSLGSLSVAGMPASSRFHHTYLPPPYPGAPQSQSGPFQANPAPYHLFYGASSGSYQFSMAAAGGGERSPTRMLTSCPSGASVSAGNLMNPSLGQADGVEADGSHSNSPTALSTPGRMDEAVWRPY

Tests used:
[1] = target: Runx3 (Homo sapiens (monocyte-derived DC)) (UniProt Q13761); assay: EMSA supershift; details: SAG treated cells; EMSA with nuclear extracts and 32P-labeled probes, 4 ug antibody for supershift; pH and temperature not stated (cited protocols); protein in an extract; label: 32P
[2] = target: Runx1 (Homo sapiens (monocyte-derived DC)) (UniProt Q01196); assay: EMSA supershift; details: SAG treated cells; EMSA with nuclear extracts and 32P-labeled probes, 4 ug antibody for supershift; pH and temperature not stated (cited protocols); protein in an extract; label: 32P
[3] = target: Runx1 (Mus musculus (BALB/c BMDC)) (UniProt Q03347); assay: EMSA; details: LPS or TNFa treated cells; EMSA with nuclear extracts and 32P-labeled probes, 4 ug antibody for supershift; pH and temperature not stated (cited protocols); protein in an extract; label: 32P
[4] = target: Runx3 (Mus musculus (BALB/c BMDC)) (UniProt Q64131); assay: EMSA; details: LPS or TNFa treated cells; EMSA with nuclear extracts and 32P-labeled probes, 4 ug antibody for supershift; pH and temperature not stated (cited protocols); protein in an extract; label: 32P
[5] = target: Runx1 (Mus musculus (BALB/c BMDC)) (UniProt Q03347); assay: EMSA supershift; details: LPS, TNFa or SAG treated cells; EMSA with nuclear extracts and 32P-labeled probes, 4 ug antibody for supershift; pH and temperature not stated (cited protocols); protein in an extract; label: 32P
[6] = target: Runx3 (Mus musculus (BALB/c BMDC)) (UniProt Q64131); assay: EMSA supershift; details: LPS, TNFa or SAG treated cells; EMSA with nuclear extracts and 32P-labeled probes, 4 ug antibody for supershift; pH and temperature not stated (cited protocols); protein in an extract; label: 32P

| Sequence | binding result [1] | binding result [2] | binding result [3] | binding result [4] | binding result [5] | binding result [6] |
| --- | --- | --- | --- | --- | --- | --- |
| CCTCCCCATACCCCAGCTGTGGCCTTCCCG (double strand) [Pr3] | binds | binds | – | – | – | – |
| TGGCCCTTCAGCGAATTCCTTTCCCGTTTTCTGACTT (double strand) [Mut-Pr1] | – | – | no binding | no binding | – | – |
| TGGCCCTTCAGCTGTGGTCTTTCCCGTTTTCTGACTT (double strand) [Pr1] | – | – | – | – | binds | binds |
| TTTTCTGACTTGAATTCGACACTGGGGACTTCCTTAGACCTCTCT (double strand) [Mut-Pr2] | – | – | no binding | no binding | – | – |
| TTTTCTGACTTTGCGGTGACACTGGGGACTTCCTTAGACCTCTCT (double strand) [Pr2] | – | – | – | – | binds | binds |
| TTTTCTGCGTGGTGGTGTGGGGGGAAC (double strand) [Pr4] | binds | binds | – | – | – | – |

Construct, isoform or probe ends are uncertain for at least one entry. Where cells or extracts were used, other partners may take part. For part of these data: Negatives hold for the conditions tested. For part of these data: At least one verdict was read from the data and is not stated in words by the source.
